In ChEMBL document CHEMBL1157379, “Transcriptional response of Candida parapsilosis following exposure to farnesol” (2007):
Further values from the same series stand in other lists.

Tests used:
Assay type in all cases: functional
Candida parapsilosis [1] = assay: Increase in CGD gene ortholog accession number orf19.2735 expression in Candida parapsilosis CLIB214 at 50 uM after 2 hrs by microarray based transcriptional profiling relative to control
Candida parapsilosis [2] = assay: Increase in CGD gene ortholog accession number orf19.2346 expression in Candida parapsilosis CLIB214 at 50 uM after 2 hrs by microarray based transcriptional profiling relative to control
Candida parapsilosis [3] = assay: Decrease in HSP30 gene expression in Candida parapsilosis CLIB214 at 50 uM after 2 hrs by microarray based transcriptional profiling relative to control
Candida parapsilosis [4] = assay: Decrease in CGD gene ortholog accession number orf19.5735 expression in Candida parapsilosis CLIB214 at 50 uM after 2 hrs by microarray based transcriptional profiling relative to control
Candida parapsilosis [5] = assay: Decrease in FBP1 gene expression in Candida parapsilosis CLIB214 at 50 uM after 2 hrs by microarray based transcriptional profiling relative to control
Candida parapsilosis [6] = assay: Decrease in CGD gene ortholog accession number orf19.1905 expression in Candida parapsilosis CLIB214 at 50 uM after 2 hrs by microarray based transcriptional profiling relative to control
Candida parapsilosis [7] = assay: Decrease in DPP1 gene expression in Candida parapsilosis CLIB214 at 50 uM after 2 hrs by microarray based transcriptional profiling relative to control
Candida parapsilosis [8] = assay: Decrease in CGD gene ortholog accession number orf19.6650 expression in Candida parapsilosis CLIB214 at 50 uM after 2 hrs by microarray based transcriptional profiling relative to control
Candida parapsilosis [9] = assay: Increase in ISW2 gene expression in Candida parapsilosis CLIB214 at 50 uM after 2 hrs by microarray based transcriptional profiling relative to control
Candida parapsilosis [10] = assay: Increase in SNF1 gene expression in Candida parapsilosis CLIB214 at 50 uM after 2 hrs by microarray based transcriptional profiling relative to control
Candida parapsilosis [11] = assay: Increase in ARG2 gene expression in Candida parapsilosis CLIB214 at 50 uM after 2 hrs by microarray based transcriptional profiling relative to control
Candida parapsilosis [12] = assay: Increase in CGD gene ortholog accession number orf19.7421 expression in Candida parapsilosis CLIB214 at 50 uM after 2 hrs by microarray based transcriptional profiling relative to control
Candida parapsilosis [13] = assay: Increase in CGD gene ortholog accession number orf19.5364 expression in Candida parapsilosis CLIB214 at 50 uM after 2 hrs by microarray based transcriptional profiling relative to control
Candida parapsilosis [14] = assay: Increase in CGD gene ortholog accession number orf19.4133 expression in Candida parapsilosis CLIB214 at 50 uM after 2 hrs by microarray based transcriptional profiling relative to control
Candida parapsilosis [15] = assay: Increase in CGD gene ortholog accession number orf19.5627 expression in Candida parapsilosis CLIB214 at 50 uM after 2 hrs by microarray based transcriptional profiling relative to control
Candida parapsilosis [16] = assay: Increase in ERG4 gene expression in Candida parapsilosis CLIB214 at 50 uM after 2 hrs by microarray based transcriptional profiling relative to control
Candida parapsilosis [17] = assay: Increase in ALD5 gene expression in Candida parapsilosis CLIB214 at 50 uM after 2 hrs by microarray based transcriptional profiling relative to control
Candida parapsilosis [18] = assay: Increase in CGD gene ortholog accession number orf19.1372 expression in Candida parapsilosis CLIB214 at 50 uM after 2 hrs by microarray based transcriptional profiling relative to control
Candida parapsilosis [19] = assay: Decrease in CGD gene ortholog accession number orf19.4960 expression in Candida parapsilosis CLIB214 at 50 uM after 2 hrs by microarray based transcriptional profiling relative to control
Candida parapsilosis [20] = assay: Increase in GenBank accession number NP_943644.1 expression in Candida parapsilosis CLIB214 at 50 uM after 2 hrs by microarray based transcriptional profiling relative to control
Candida parapsilosis [21] = assay: Increase in CDC60B gene expression in Candida parapsilosis CLIB214 at 50 uM after 2 hrs by microarray based transcriptional profiling relative to control
Candida parapsilosis [22] = assay: Increase in CGD gene ortholog accession number orf19.1421 expression in Candida parapsilosis CLIB214 at 50 uM after 2 hrs by microarray based transcriptional profiling relative to control
Candida parapsilosis [23] = assay: Increase in CGD gene ortholog accession number orf19.5407 expression in Candida parapsilosis CLIB214 at 50 uM after 2 hrs by microarray based transcriptional profiling relative to control
Candida parapsilosis [24] = assay: Increase in CGD gene ortholog accession number orf19.6555 expression in Candida parapsilosis CLIB214 at 50 uM after 2 hrs by microarray based transcriptional profiling relative to control
Candida parapsilosis [25] = assay: Increase in CGD gene ortholog accession number orf19.6019 expression in Candida parapsilosis CLIB214 at 50 uM after 2 hrs by microarray based transcriptional profiling relative to control
Candida parapsilosis [26] = assay: Decrease in CGD gene ortholog accession number orf19.6186 expression in Candida parapsilosis CLIB214 at 50 uM after 2 hrs by microarray based transcriptional profiling relative to control
Candida parapsilosis [27] = assay: Decrease in RIB1 gene expression in Candida parapsilosis CLIB214 at 50 uM after 2 hrs by microarray based transcriptional profiling relative to control
Candida parapsilosis [28] = assay: Decrease in CGD gene ortholog accession number orf19.4789 expression in Candida parapsilosis CLIB214 at 50 uM after 2 hrs by microarray based transcriptional profiling relative to control
Candida parapsilosis [29] = assay: Decrease in CGD gene ortholog accession number orf19.3458 expression in Candida parapsilosis CLIB214 at 50 uM after 2 hrs by microarray based transcriptional profiling relative to control
Candida parapsilosis [30] = assay: Decrease in AMS1 gene expression in Candida parapsilosis CLIB214 at 50 uM after 2 hrs by microarray based transcriptional profiling relative to control
Candida parapsilosis [31] = assay: Decrease in CGD gene ortholog accession number orf19.6211 expression in Candida parapsilosis CLIB214 at 50 uM after 2 hrs by microarray based transcriptional profiling relative to control
Candida parapsilosis [32] = assay: Decrease in CGD gene ortholog accession number orf19.296 expression in Candida parapsilosis CLIB214 at 50 uM after 2 hrs by microarray based transcriptional profiling relative to control
Candida parapsilosis [33] = assay: Decrease in CGD gene ortholog accession number orf19.3806 expression in Candida parapsilosis CLIB214 at 50 uM after 2 hrs by microarray based transcriptional profiling relative to control
Candida parapsilosis [34] = assay: Increase in SNQ2 gene expression in Candida parapsilosis CLIB214 at 50 uM after 2 hrs by microarray based transcriptional profiling relative to control
Candida parapsilosis [35] = assay: Increase in MNN2 gene expression in Candida parapsilosis CLIB214 at 50 uM after 2 hrs by microarray based transcriptional profiling relative to control
Candida parapsilosis [36] = assay: Increase in PUT2 gene expression in Candida parapsilosis CLIB214 at 50 uM after 2 hrs by microarray based transcriptional profiling relative to control
Candida parapsilosis [37] = assay: Increase in DAL9 gene expression in Candida parapsilosis CLIB214 at 50 uM after 2 hrs by microarray based transcriptional profiling relative to control

## CC(C)=CCC/C(C)=C/CC/C(C)=C/CO [FARNESOL]
Candida parapsilosis [1]
  fold change (FC): 2.02
Candida parapsilosis [2]
  fold change (FC): 1.59
Candida parapsilosis [3]
  fold change (FC): 2.14
Candida parapsilosis [4]
  fold change (FC): 1.56
Candida parapsilosis [5]
  fold change (FC): 1.93
Candida parapsilosis [6]
  fold change (FC): 1.94
Candida parapsilosis [7]
  fold change (FC): 2
Candida parapsilosis [8]
  fold change (FC): 2.01
Candida parapsilosis [9]
  fold change (FC): 1.72
Candida parapsilosis [10]
  fold change (FC): 1.57
Candida parapsilosis [11]
  fold change (FC): 1.56
Candida parapsilosis [12]
  fold change (FC): 1.56
Candida parapsilosis [13]
  fold change (FC): 1.52
Candida parapsilosis [14]
  fold change (FC): 1.52
Candida parapsilosis [15]
  fold change (FC): 1.92
Candida parapsilosis [16]
  fold change (FC): 1.54
Candida parapsilosis [17]
  fold change (FC): 1.83
Candida parapsilosis [18]
  fold change (FC): 1.79
Candida parapsilosis [19]
  fold change (FC): 1.64
Candida parapsilosis [20]
  fold change (FC): 3.06
Candida parapsilosis [21]
  fold change (FC): 2.73
Candida parapsilosis [22]
  fold change (FC): 1.7
Candida parapsilosis [23]
  fold change (FC): 1.66
Candida parapsilosis [24]
  fold change (FC): 1.64
Candida parapsilosis [25]
  fold change (FC): 1.62
Candida parapsilosis [26]
  fold change (FC): 1.52
Candida parapsilosis [27]
  fold change (FC): 1.53
Candida parapsilosis [28]
  fold change (FC): 2.42
Candida parapsilosis [29]
  fold change (FC): 1.65
Candida parapsilosis [30]
  fold change (FC): 1.66
Candida parapsilosis [31]
  fold change (FC): 1.69
Candida parapsilosis [32]
  fold change (FC): 1.73
Candida parapsilosis [33]
  fold change (FC): 1.8
Candida parapsilosis [34]
  fold change (FC): 2.43
Candida parapsilosis [35]
  fold change (FC): 1.6
Candida parapsilosis [36]
  fold change (FC): 1.6
Candida parapsilosis [37]
  fold change (FC): 1.6
